Test results from US20130243802A1.
Results are given in words; binding and its absence hold for the method and conditions named. Binding calls can cover weak binding; strength is not graded here. Tags and fused reporters may be left off the sequences shown.

Experiments:
[1] = target: recombinant human HSP70 (human); assay: CHIEF gel, 1 µg of recombinant HSP70 against 15 µg of peptide
[2] = target: recombinant rat HSP70 (rat); assay: as above
[3] = target: recombinant Arthrobacter davidanieli HSP70 (Arthrobacter davidanieli); assay: CHIEF gel
[4] = target: recombinant Arthrobacter davidanieli HSP70 (Arthrobacter davidanieli); assay: CHIEF gel, 80 µg of peptide against 10 to 1.25 µg of adHSP70

Measured: binding

PSQGKGRGLSLSRFSWGAPSQASSGQARMFPNAPYL [MBP100-117_WT1 117-134]
binds: [1] | [2] | [3] | [4]
